Data taken from PMC7708056 (2020).

By UniProt entry, the sequences of proteins in these tests, tags left out. Residues count along the entry.
UniProt P09012, 2-98 Y31H/Q36R: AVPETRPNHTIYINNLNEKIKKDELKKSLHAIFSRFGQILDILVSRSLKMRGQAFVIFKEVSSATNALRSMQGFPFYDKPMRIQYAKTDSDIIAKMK

Target: U1A protein (RNA-binding domain, crystallization module) Y31H,Q36R (UniProt P09012)
Test: X-ray crystal structure
Details: NAD+ and Mg2+ bound, RNA:U1A 1:1.2; Complex formation for crystals: 50 mM HEPES pH 7.0, 50 mM NaCl, 5 mM MgCl2, RNA:NAD+ 1:15, on ice; crystals at 16 C in 0.2 M Mg(OAc)2, 0.1 M NaAsO2 pH 6.5, 30% MPD; recombinant protein; residues 2-98; protein details: His10-SUMO N-terminal, cleaved by ULP1

**Q.** Does “GGCGCAACAUCCCCGCCGGUUGGGCGCAUUGCACUCCGCGCAGUGAACCGGCUGCGCC [17delU1A-D1 (NAD+ riboswitch domain 1 with U1A-binding loop)]” bind?
**A.** Result: binds

Construct, isoform or probe ends are uncertain for at least one entry. At least one verdict rests on a figure or table, not on a statement of the authors.
